For at least one compound, name, drawing or mass did not settle the structure.
Target: T1, xCT glutamate/cysteine antiporter (Homo sapiens, UniProt Q9UPY5)
T1 construct: endogenous in cells; host or cells: A549 cells (stably expressing dox-inducible NTC1 or NRF2 sh10 shRNA)
T1 sequence (Q9UPY5 1-501): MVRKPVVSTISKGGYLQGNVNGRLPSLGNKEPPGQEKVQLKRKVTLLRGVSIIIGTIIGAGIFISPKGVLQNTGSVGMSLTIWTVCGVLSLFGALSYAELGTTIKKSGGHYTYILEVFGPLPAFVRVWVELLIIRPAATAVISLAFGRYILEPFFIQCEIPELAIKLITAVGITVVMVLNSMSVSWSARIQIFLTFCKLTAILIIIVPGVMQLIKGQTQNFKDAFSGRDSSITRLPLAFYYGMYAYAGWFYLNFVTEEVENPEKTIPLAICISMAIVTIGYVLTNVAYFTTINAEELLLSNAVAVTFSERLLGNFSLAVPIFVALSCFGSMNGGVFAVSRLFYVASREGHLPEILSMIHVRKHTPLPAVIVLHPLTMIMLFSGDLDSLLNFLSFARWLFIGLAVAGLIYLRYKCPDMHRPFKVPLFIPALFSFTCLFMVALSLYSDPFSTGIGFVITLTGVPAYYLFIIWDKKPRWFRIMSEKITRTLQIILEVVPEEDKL
T1 sequence (P08195 1-529 partner): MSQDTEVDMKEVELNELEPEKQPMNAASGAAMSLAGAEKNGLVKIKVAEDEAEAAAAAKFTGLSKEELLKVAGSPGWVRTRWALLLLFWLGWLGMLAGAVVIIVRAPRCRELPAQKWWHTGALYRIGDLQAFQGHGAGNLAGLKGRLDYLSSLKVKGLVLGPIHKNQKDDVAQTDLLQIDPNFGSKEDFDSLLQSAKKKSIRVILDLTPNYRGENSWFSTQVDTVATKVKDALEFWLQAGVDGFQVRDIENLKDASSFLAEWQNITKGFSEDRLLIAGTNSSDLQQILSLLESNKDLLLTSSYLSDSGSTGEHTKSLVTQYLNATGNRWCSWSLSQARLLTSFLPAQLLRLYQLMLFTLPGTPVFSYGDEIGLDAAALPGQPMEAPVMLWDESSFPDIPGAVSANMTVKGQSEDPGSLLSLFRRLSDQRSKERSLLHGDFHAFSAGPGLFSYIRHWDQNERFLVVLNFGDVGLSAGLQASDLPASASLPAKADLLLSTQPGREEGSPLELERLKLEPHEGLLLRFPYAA
Experiment: 14C-cystine uptake by A549 cells
Assay type: cell-based
Details: 0.5 uCi 14C-Cystine for 20 minutes

CCOc1ccccc1-n1c(C(C)N2CCN(C(=O)COc3ccc(Cl)cc3)CC2)nc2ccccc2c1=O (stereo not shown) [erastin]
cystine uptake: inhibited cystine uptake

From patent US11066709B2, “Methods for diagnosing and treating cancer by means of the expression status and mutational status of NRF2 and downstream target genes of said gene” (Genentech, Inc., priority 2016, dated 2021)
